Consider 2 molecules from paper PMC4737187.

Protein sequences, listed by entry. Tags and fused reporters are not part of them. Residues count along the entry.
UniProt P35869, residues 11-848: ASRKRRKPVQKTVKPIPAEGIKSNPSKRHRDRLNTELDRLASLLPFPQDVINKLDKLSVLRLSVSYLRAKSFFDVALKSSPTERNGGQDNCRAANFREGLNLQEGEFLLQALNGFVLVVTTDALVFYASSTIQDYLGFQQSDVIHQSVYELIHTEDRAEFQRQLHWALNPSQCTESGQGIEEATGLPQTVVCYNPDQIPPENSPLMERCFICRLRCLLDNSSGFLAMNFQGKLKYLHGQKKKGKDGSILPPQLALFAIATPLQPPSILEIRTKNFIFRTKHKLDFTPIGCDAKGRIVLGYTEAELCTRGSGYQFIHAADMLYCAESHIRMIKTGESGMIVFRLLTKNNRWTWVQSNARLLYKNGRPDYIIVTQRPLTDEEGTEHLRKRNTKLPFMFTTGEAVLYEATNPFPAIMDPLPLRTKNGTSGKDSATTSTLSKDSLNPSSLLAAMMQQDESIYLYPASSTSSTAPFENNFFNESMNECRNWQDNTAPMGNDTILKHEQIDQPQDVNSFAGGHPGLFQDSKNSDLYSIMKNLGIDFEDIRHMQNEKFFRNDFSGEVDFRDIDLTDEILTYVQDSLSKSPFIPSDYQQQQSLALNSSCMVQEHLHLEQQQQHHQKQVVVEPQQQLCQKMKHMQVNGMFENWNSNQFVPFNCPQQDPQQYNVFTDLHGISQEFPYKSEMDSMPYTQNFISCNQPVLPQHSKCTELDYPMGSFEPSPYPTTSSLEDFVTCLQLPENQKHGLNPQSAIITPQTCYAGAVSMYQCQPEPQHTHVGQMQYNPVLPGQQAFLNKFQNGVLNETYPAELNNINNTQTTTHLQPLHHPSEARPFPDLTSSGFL

These are yes or no findings as the source states them, for the method shown. In cells and extracts the contact can be indirect. Some entries that bind do so weakly or less than the wild type.

For assay [1], the target named is Arylhydrocarbon receptor (AhR), endogenous (human (endogenous in HeLa S3)) (UniProt P35869). The assay can be described thus: co-IP; chromatin fraction of HeLa S3 cells incubated with anti-AhR (N-19) or anti-PDC-E2 (ab110332) antibody, protein G-Agarose, 4°C; normal goat or mouse IgG as control; western blotting.
The target of assay [2] is FLAG-HA-tagged arylhydrocarbon receptor (eAhR) (human) (UniProt P35869). Kind of assay: co-IP; FLAG-HA-tagged bait purified on anti-FLAG antibody-conjugated agarose from the solubilized chromatin fraction of stably transduced HeLa S3 cells treated with 100 nM indirubin for 3 h; western blotting; mock purification from non-transduced cells. Background: In western blotting, separated proteins are transferred to a membrane and probed.

For assay [3], the target named is FLAG-HA-tagged pyruvate kinase M2 (ePKM2) (human), P14618. Described as above. The settings on record: remark: other sources report otherwise.

B1: E2 subunit of pyruvate dehydrogenase complex (PDC-E2), endogenous (protein, UniProt P10515 87-647)
chain: SLPPHQKVPLPSLSPTMQAGTIARWEKKEGDKINEGDLIAEVETDKATVGFESLEECYMAKILVAEGTRDVPIGAIICITVGKPEDIEAFKNYTLDSSAAPTPQAAPAPTPAATASPPTPSAQAPGSSYPPHMQVLLPALSPTMTMGTVQRWEKKVGEKLSEGDLLAEIETDKATIGFEVQEEGYLAKILVPEGTRDVPLGTPLCIIVEKEADISAFADYRPTEVTDLKPQVPPPTPPPVAAVPPTPQPLAPTPSAPCPATPAGPKGRVFVSPLAKKLAVEKGIDLTQVKGTGPDGRITKKDIDSFVPSKVAPAPAAVVPPTGPGMAPVPTGVFTDIPISNIRRVIAQRLMQSKQTIPHYYLSIDVNMGEVLLVRKELNKILEGRSKISVNDFIIKASALACLKVPEANSSWMDTVIRQNHVVDVSVAVSTPAGLITPIVFNAHIKGVETIANDVVSLATKAREGKLQPHEFQGGTFTISNLGMFGIKNFSAIINPPQACILAIGASEDKLVPADNEKGFDVASMMSVTLSCDHRVVDGAVGAQWLAEFRKYLEKPITMLL
In the case of B1, the binding entry in assay [1] and in assay [2] was “binds” throughout.

B2: E2 subunit of pyruvate dehydrogenase complex (PDC-E2), endogenous, P10515 87-647 (protein)
chain: SLPPHQKVPLPSLSPTMQAGTIARWEKKEGDKINEGDLIAEVETDKATVGFESLEECYMAKILVAEGTRDVPIGAIICITVGKPEDIEAFKNYTLDSSAAPTPQAAPAPTPAATASPPTPSAQAPGSSYPPHMQVLLPALSPTMTMGTVQRWEKKVGEKLSEGDLLAEIETDKATIGFEVQEEGYLAKILVPEGTRDVPLGTPLCIIVEKEADISAFADYRPTEVTDLKPQVPPPTPPPVAAVPPTPQPLAPTPSAPCPATPAGPKGRVFVSPLAKKLAVEKGIDLTQVKGTGPDGRITKKDIDSFVPSKVAPAPAAVVPPTGPGMAPVPTGVFTDIPISNIRRVIAQRLMQSKQTIPHYYLSIDVNMGEVLLVRKELNKILEGRSKISVNDFIIKASALACLKVPEANSSWMDTVIRQNHVVDVSVAVSTPAGLITPIVFNAHIKGVETIANDVVSLATKAREGKLQPHEFQGGTFTISNLGMFGIKNFSAIINPPQACILAIGASEDKLVPADNEKGFDVASMMSVTLSCDHRVVDGAVGAQWLAEFRKYLEKPITMLL
For the molecule B2, the binding entry in assay [3] is on record as “binds”.
